# Reference: the supplement of paper PMC11438910
# The other results are listed elsewhere or left out. Most of these values are background signal.
# What was measured:
# Assay in all cases: fluorescence intensity of antibody binding to polysaccharide-coupled beads; higher = stronger binding
# [1] = molecular target: pneumococcal polysaccharide C-Poly-1
# [2] = molecular target: pneumococcal polysaccharide C-Poly-2
# [3] = molecular target: pneumococcal polysaccharide Pn1
# [4] = molecular target: pneumococcal polysaccharide Pn10A
# [5] = molecular target: pneumococcal polysaccharide Pn10B
# [6] = molecular target: pneumococcal polysaccharide Pn10C
# [7] = molecular target: pneumococcal polysaccharide Pn10F
# [8] = molecular target: pneumococcal polysaccharide Pn11A
# [9] = antibody concentration 0.1 ng/mL
# [10] = antibody concentration 0.534724 ng/mL
# [11] = antibody concentration 2.8593 ng/mL
# [12] = antibody concentration 15.2894 ng/mL
# [13] = antibody concentration 81.7561 ng/mL
# [14] = antibody concentration 437.17 ng/mL
# [15] = antibody concentration 2337.65 ng/mL
# [16] = antibody concentration 12500 ng/mL
binder,measurement,setting,value
4-127.2 (protein) chain 1: QVQLQESGPGLVKPSETLSLTCAVSGYSVNSGHGWTWIRQSPGKGLEWIGYIGGGSGSSNYNPSLKSRVTISKDTSNNQLSLKLRSLTTADTAMYYCARRVPADRSGNDYWGQGVLVTVSS chain 2: QSVLTQPPSVSGDPGQRVTISCTGSSSNIGDYYGYWYQQFPGTAPKLLIFDDNNRPSGISDRFSGSKAGTSASLTITGLQPGDEADYYCGAWDGSLNAHVFGSGTKLTVL,fluorescence intensity,[1]; [9],24.8 MFI
same,fluorescence intensity,[1]; [10],25.2 MFI
same,fluorescence intensity,[1]; [11],24.8 MFI
same,fluorescence intensity,[1]; [12],25 MFI
same,fluorescence intensity,[1]; [13],26.2 MFI
same,fluorescence intensity,[1]; [14],32.2 MFI
same,fluorescence intensity,[1]; [15],63 MFI
same,fluorescence intensity,[1]; [16],347 MFI
same,fluorescence intensity,[2]; [9],20 MFI
same,fluorescence intensity,[2]; [10],20.5 MFI
same,fluorescence intensity,[2]; [11],21 MFI
same,fluorescence intensity,[2]; [12],20.8 MFI
same,fluorescence intensity,[2]; [13],22 MFI
same,fluorescence intensity,[2]; [14],25.5 MFI
same,fluorescence intensity,[2]; [15],53.8 MFI
same,fluorescence intensity,[2]; [16],290 MFI
same,fluorescence intensity,[3]; [9],13 MFI
same,fluorescence intensity,[3]; [10],13 MFI
same,fluorescence intensity,[3]; [11],12.5 MFI
same,fluorescence intensity,[3]; [12],12.2 MFI
same,fluorescence intensity,[3]; [13],13.5 MFI
same,fluorescence intensity,[3]; [14],15.8 MFI
same,fluorescence intensity,[3]; [15],19.5 MFI
same,fluorescence intensity,[3]; [16],54.8 MFI
same,fluorescence intensity,[4]; [9],24 MFI
same,fluorescence intensity,[4]; [10],26.5 MFI
same,fluorescence intensity,[4]; [11],26 MFI
same,fluorescence intensity,[4]; [12],26 MFI
same,fluorescence intensity,[4]; [13],25.5 MFI
same,fluorescence intensity,[4]; [14],26 MFI
same,fluorescence intensity,[4]; [15],26.5 MFI
same,fluorescence intensity,[4]; [16],51.5 MFI
same,fluorescence intensity,[5]; [9],22 MFI
same,fluorescence intensity,[5]; [10],24 MFI
same,fluorescence intensity,[5]; [11],22.8 MFI
same,fluorescence intensity,[5]; [12],22.5 MFI
same,fluorescence intensity,[5]; [13],23 MFI
same,fluorescence intensity,[5]; [14],24.5 MFI
same,fluorescence intensity,[5]; [15],24.8 MFI
same,fluorescence intensity,[5]; [16],41 MFI
same,fluorescence intensity,[6]; [9],16 MFI
same,fluorescence intensity,[6]; [10],16.5 MFI
same,fluorescence intensity,[6]; [11],16 MFI
same,fluorescence intensity,[6]; [12],17 MFI
same,fluorescence intensity,[6]; [13],16 MFI
same,fluorescence intensity,[6]; [14],16 MFI
same,fluorescence intensity,[6]; [15],17.5 MFI
same,fluorescence intensity,[6]; [16],26 MFI
same,fluorescence intensity,[7]; [9],19.5 MFI
same,fluorescence intensity,[7]; [10],20 MFI
same,fluorescence intensity,[7]; [11],19 MFI
same,fluorescence intensity,[7]; [12],18.5 MFI
same,fluorescence intensity,[7]; [13],19.8 MFI
same,fluorescence intensity,[7]; [14],19.5 MFI
same,fluorescence intensity,[7]; [15],20.5 MFI
same,fluorescence intensity,[7]; [16],22.5 MFI
same,fluorescence intensity,[8]; [9],28.5 MFI
same,fluorescence intensity,[8]; [10],27.5 MFI
same,fluorescence intensity,[8]; [11],27.2 MFI
same,fluorescence intensity,[8]; [12],27 MFI

# 3 records drawn at random from those above:
binder,measurement,setting,value
4-127.2 (protein) chain 1: QVQLQESGPGLVKPSETLSLTCAVSGYSVNSGHGWTWIRQSPGKGLEWIGYIGGGSGSSNYNPSLKSRVTISKDTSNNQLSLKLRSLTTADTAMYYCARRVPADRSGNDYWGQGVLVTVSS chain 2: QSVLTQPPSVSGDPGQRVTISCTGSSSNIGDYYGYWYQQFPGTAPKLLIFDDNNRPSGISDRFSGSKAGTSASLTITGLQPGDEADYYCGAWDGSLNAHVFGSGTKLTVL,fluorescence intensity,[4]; [9],24 MFI
same,fluorescence intensity,[3]; [12],12.2 MFI
same,fluorescence intensity,[2]; [13],22 MFI
